Article PMC10329682
No constants are given. Whether binding was seen depends on the method and setting. In cells and extracts the contact can be indirect. Some entries that bind do so weakly or less than the wild type.

Protein sequences, listed by entry. Tags and fused reporters are not part of them. Lines headed by an entry give the natural chain unless they say otherwise; changes in a name come on top.
UniProt P19474: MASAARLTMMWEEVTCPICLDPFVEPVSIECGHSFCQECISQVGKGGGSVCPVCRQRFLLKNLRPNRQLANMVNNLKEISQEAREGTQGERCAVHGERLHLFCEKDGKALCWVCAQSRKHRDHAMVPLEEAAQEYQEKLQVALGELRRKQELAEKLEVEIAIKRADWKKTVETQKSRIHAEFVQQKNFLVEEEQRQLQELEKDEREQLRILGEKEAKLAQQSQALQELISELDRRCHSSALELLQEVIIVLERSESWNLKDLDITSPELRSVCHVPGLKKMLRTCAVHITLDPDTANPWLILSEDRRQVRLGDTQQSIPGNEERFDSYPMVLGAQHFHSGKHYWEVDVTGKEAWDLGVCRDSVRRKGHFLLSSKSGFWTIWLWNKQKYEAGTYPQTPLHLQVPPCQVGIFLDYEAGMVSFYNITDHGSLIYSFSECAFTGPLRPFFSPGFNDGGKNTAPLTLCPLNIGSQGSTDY
UniProt Q16763: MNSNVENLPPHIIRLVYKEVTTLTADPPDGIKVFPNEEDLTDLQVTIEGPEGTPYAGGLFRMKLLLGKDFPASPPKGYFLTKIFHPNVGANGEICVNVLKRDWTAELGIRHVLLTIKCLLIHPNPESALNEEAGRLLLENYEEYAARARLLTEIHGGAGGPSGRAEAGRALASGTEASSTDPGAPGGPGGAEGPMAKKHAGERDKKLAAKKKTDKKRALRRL

Experiments:
[1] = molecular target: tripartite motif containing 21 (human (endogenous in T24 and UM-UC-3)) (UniProt P19474); assay: co-IP; endogenous proteins in lysates of wild-type T24 and UM-UC-3 cells; 2 ug of the corresponding antibody overnight at 4 C, Protein A/G magnetic beads 2 h at room temperature, western blot
[2] = molecular target: Ubiquitin-conjugating enzyme E2S (human (endogenous in T24 and UM-UC-3)) (UniProt Q16763); assay: as above

binding [1]: binds | binding [2]: binds
B1: lipoma preferred partner (protein, UniProt Q93052 1-612)
chain: MSHPSWLPPKSTGEPLGHVPARMETTHSFGNPSISVSTQQPPKKFAPVVAPKPKYNPYKQPGGEGDFLPPPPPPLDDSSALPSISGNFPPPPPLDEEAFKVQGNPGGKTLEERRSSLDAEIDSLTSILADLECSSPYKPRPPQSSTGSTASPPVSTPVTGHKRMVIPNQPPLTATKKSTLKPQPAPQAGPIPVAPIGTLKPQPQPVPASYTTASTSSRPTFNVQVKSAQPSPHYMAAPSSGQIYGSGPQGYNTQPVPVSGQCPPPSTRGGMDYAYIPPPGLQPEPGYGYAPNQGRYYEGYYAAGPGYGGRNDSDPTYGQQGHPNTWKREPGYTPPGAGNQNPPGMYPVTGPKKTYITDPVSAPCAPPLQPKGGHSGQLGPSSVAPSFRPEDELEHLTKKMLYDMENPPADEYFGRCARCGENVVGEGTGCTAMDQVFHVDCFTCIICNNKLRGQPFYAVEKKAYCEPCYINTLEQCNVCSKPIMERILRATGKAYHPHCFTCVMCHRSLDGIPFTVDAGGLIHCIEDFHKKFAPRCSVCKEPIMPAPGQEETVRIVALDRDFHVHCYRCEDCGGLLSEGDNQGCYPLDGHILCKTCNSARIRVLTAKASTDL
